{"source": "PubChem BioAssay AID686938 (Drosophila RNAi Screening Center, 2013)", "assay": "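Looking for CRAC channel components and the factors controlling them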 (primary screen)", "system": "Drosophila S2R+ cells", "reagents": "long dsRNA against Drosophila genes, about 0.25 µg dsRNA per well, roughly 10,000 cells", "time to read-out": "5 days of knock-down before the calcium assay", "challenge": "thapsigargin (SERCA pump blocker) to empty calcium stores; entry signal taken 4 min after adding it", "measurement": "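Duplicate raw fluo-4 intensities per well from a plate reader, at rest and four minutes after thapsigargin emptied calcium stores; entry-to-rest ratio filled for only some wells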", "scale": "calcium entry signal: higher = stronger calcium signal after store depletion; resting calcium signal: higher = higher resting calcium signal", "units": "calcium entry signal in fluorescence units; resting calcium signal in fluorescence units", "active means": "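Called when the plate z-score of the entry-to-rest ratio, mean of duplicates, falls below −3; wells with low overall dye signal (Fmax z below −2) or more than five off-targets excluded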", "meaning of the calls": "active = strongly reduced calcium entry; inactive = no strong reduction", "note": "The screen tested about 23,000 reagents; this is a random part of those with a known target gene and a result. Of all reagents, 75 (0.33%) got an active call. 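Raw plate signals without normalisation; calls rest on plate z-scores that were not deposited; ratio present for only 364 wells.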 A number with no mark means an inactive call. Names joined by + are all predicted targets of the reagent. The record does not give: the dose of the treatment."}
{"gene knocked down": "Lerp", "PubChem SID": "SID104194542", "calcium entry signal, replicate 1": 2.87e7, "calcium entry signal, replicate 2": 4.78e7, "resting calcium signal, replicate 1": 1.50e7, "resting calcium signal, replicate 2": 2.08e7}
{"gene knocked down": "Lerp", "PubChem SID": "SID104194543", "calcium entry signal, replicate 1": 2.61e7, "calcium entry signal, replicate 2": 4.43e7, "resting calcium signal, replicate 1": 1.42e7, "resting calcium signal, replicate 2": 2.01e7}
{"gene knocked down": "Lerp", "PubChem SID": "SID104195822", "calcium entry signal, replicate 1": 2.65e7, "calcium entry signal, replicate 2": 4.74e7, "resting calcium signal, replicate 1": 1.45e7, "resting calcium signal, replicate 2": 2.10e7}
{"gene knocked down": "Lerp", "PubChem SID": "SID104195823", "calcium entry signal, replicate 1": 2.49e7, "calcium entry signal, replicate 2": 4.75e7, "resting calcium signal, replicate 1": 1.39e7, "resting calcium signal, replicate 2": 2.15e7}
{"gene knocked down": "Osi14", "PubChem SID": "SID104192160", "calcium entry signal, replicate 1": 3.33e7, "calcium entry signal, replicate 2": 1.80e7, "resting calcium signal, replicate 1": 1.55e7, "resting calcium signal, replicate 2": 9.58e6}
{"gene knocked down": "Spn42Db", "PubChem SID": "SID104184801", "calcium entry signal, replicate 1": 2.35e7, "calcium entry signal, replicate 2": 2.64e7, "resting calcium signal, replicate 1": 1.10e7, "resting calcium signal, replicate 2": 1.22e7}
{"gene knocked down": "BaraB", "PubChem SID": "SID104186212", "calcium entry signal, replicate 1": 3.80e7, "calcium entry signal, replicate 2": 3.54e7, "resting calcium signal, replicate 1": 1.77e7, "resting calcium signal, replicate 2": 1.63e7}
{"gene knocked down": "Phk-3", "PubChem SID": "SID104184339", "calcium entry signal, replicate 1": 2.74e7, "calcium entry signal, replicate 2": 3.22e7, "resting calcium signal, replicate 1": 1.51e7, "resting calcium signal, replicate 2": 1.52e7}
{"gene knocked down": "Fen1", "PubChem SID": "SID104187207", "calcium entry signal, replicate 1": 3.47e7, "calcium entry signal, replicate 2": 3.18e7, "resting calcium signal, replicate 1": 1.50e7, "resting calcium signal, replicate 2": 1.54e7}
{"gene knocked down": "CG17121", "PubChem SID": "SID104194968", "calcium entry signal, replicate 1": 4.75e7, "calcium entry signal, replicate 2": 6.30e7, "resting calcium signal, replicate 1": 2.42e7, "resting calcium signal, replicate 2": 2.46e7}
{"gene knocked down": "Shc", "PubChem SID": "SID104191076", "calcium entry signal, replicate 1": 2.13e7, "calcium entry signal, replicate 2": 2.71e7, "resting calcium signal, replicate 1": 1.17e7, "resting calcium signal, replicate 2": 1.18e7}
{"gene knocked down": "CG4306", "PubChem SID": "SID104190201", "calcium entry signal, replicate 1": 2.99e7, "calcium entry signal, replicate 2": 4.80e7, "resting calcium signal, replicate 1": 1.61e7, "resting calcium signal, replicate 2": 1.81e7}
{"gene knocked down": "asRNA:CR43477 + CG12256", "PubChem SID": "SID104194276", "calcium entry signal, replicate 1": 3.62e7, "calcium entry signal, replicate 2": 2.66e7, "resting calcium signal, replicate 1": 1.84e7, "resting calcium signal, replicate 2": 1.46e7}
{"gene knocked down": "sax", "PubChem SID": "SID104187467", "calcium entry signal, replicate 1": 3.29e7, "calcium entry signal, replicate 2": 2.86e7, "resting calcium signal, replicate 1": 1.49e7, "resting calcium signal, replicate 2": 1.44e7}
{"gene knocked down": "CG14926", "PubChem SID": "SID104182201", "calcium entry signal, replicate 1": 3.67e7, "calcium entry signal, replicate 2": 4.40e7, "resting calcium signal, replicate 1": 1.78e7, "resting calcium signal, replicate 2": 1.66e7}
{"gene knocked down": "Ho", "PubChem SID": "SID104194731", "calcium entry signal, replicate 1": 2.93e7, "calcium entry signal, replicate 2": 3.07e7, "resting calcium signal, replicate 1": 1.32e7, "resting calcium signal, replicate 2": 1.43e7}
{"gene knocked down": "dachs", "PubChem SID": "SID104180818", "calcium entry signal, replicate 1": 3.77e7, "calcium entry signal, replicate 2": 3.22e7, "resting calcium signal, replicate 1": 1.69e7, "resting calcium signal, replicate 2": 1.64e7}
{"gene knocked down": "dachs", "PubChem SID": "SID104181864", "calcium entry signal, replicate 1": 4.65e7, "resting calcium signal, replicate 1": 2.31e7}
{"gene knocked down": "dachs", "PubChem SID": "SID104181983", "calcium entry signal, replicate 1": 4.39e7, "calcium entry signal, replicate 2": 6.89e7, "resting calcium signal, replicate 1": 2.04e7, "resting calcium signal, replicate 2": 2.77e7}
{"gene knocked down": "CG17329", "PubChem SID": "SID104181718", "calcium entry signal, replicate 1": 4.78e7, "calcium entry signal, replicate 2": 3.46e7, "resting calcium signal, replicate 1": 2.11e7, "resting calcium signal, replicate 2": 1.73e7}
{"gene knocked down": "Sting", "PubChem SID": "SID104186407", "calcium entry signal, replicate 1": 3.54e7, "calcium entry signal, replicate 2": 3.24e7, "resting calcium signal, replicate 1": 1.71e7, "resting calcium signal, replicate 2": 1.37e7}
